One assay concerns the target T1, MPV17-BirA* (human) (UniProt P39210).
T1 sequence: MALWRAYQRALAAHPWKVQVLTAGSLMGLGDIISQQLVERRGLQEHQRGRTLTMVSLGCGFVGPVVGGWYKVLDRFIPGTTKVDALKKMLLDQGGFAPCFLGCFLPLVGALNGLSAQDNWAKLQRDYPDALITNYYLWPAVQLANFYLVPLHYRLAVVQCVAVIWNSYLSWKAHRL
The experiment in a line: proximity labelling.

Assay [1] deals with T2, MIC60 (human (endogenous in HEK293T)) (UniProt Q16891).
T2 sequence: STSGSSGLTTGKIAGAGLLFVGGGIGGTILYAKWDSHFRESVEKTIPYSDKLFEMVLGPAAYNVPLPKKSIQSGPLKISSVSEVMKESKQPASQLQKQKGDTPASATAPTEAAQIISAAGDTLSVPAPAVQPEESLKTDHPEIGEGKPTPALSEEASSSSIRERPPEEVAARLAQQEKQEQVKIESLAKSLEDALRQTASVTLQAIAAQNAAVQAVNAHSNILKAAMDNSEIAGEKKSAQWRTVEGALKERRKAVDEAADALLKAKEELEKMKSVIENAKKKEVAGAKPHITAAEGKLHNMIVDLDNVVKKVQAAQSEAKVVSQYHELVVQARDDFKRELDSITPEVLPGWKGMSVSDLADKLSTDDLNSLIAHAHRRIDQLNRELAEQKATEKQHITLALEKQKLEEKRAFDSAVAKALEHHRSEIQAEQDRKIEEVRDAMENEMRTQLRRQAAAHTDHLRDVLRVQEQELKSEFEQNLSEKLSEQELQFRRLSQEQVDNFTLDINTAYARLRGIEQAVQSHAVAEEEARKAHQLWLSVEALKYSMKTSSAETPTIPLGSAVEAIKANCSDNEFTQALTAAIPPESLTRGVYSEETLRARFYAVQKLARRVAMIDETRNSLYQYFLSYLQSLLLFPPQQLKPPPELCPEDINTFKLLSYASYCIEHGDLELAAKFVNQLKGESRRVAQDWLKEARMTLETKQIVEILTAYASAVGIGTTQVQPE
The experiment in a line: affinity purification with mass spectrometry.

Among the data in paper doi:10.1101/2024.04.12.589178 are binding values, retold here.

No constants are given. Whether binding was seen depends on the method and setting. Binding seen in cells or lysates may run through a third protein. These calls come from enrichment with a bait or labelling near it, and not all partners need be listed.

B1: DNAJC11 (protein, UniProt Q9NVH1 1-559)
chain: MATALSEEELDNEDYYSLLNVRREASSEELKAAYRRLCMLYHPDKHRDPELKSQAERLFNLVHQAYEVLSDPQTRAIYDIYGKRGLEMEGWEVVERRRTPAEIREEFERLQREREERRLQQRTNPKGTISVGVDATDLFDRYDEEYEDVSGSSFPQIEINKMHISQSIEAPLTATDTAILSGSLSTQNGNGGGSINFALRRVTSAKGWGELEFGAGDLQGPLFGLKLFRNLTPRCFVTTNCALQFSSRGIRPGLTTVLARNLDKNTVGYLQWRWGIQSAMNTSIVRDTKTSHFTVALQLGIPHSFALISYQHKFQDDDQTRVKGSLKAGFFGTVVEYGAERKISRHSVLGAAVSVGVPQGVSLKVKLNRASQTYFFPIHLTDQLLPSAMFYATVGPLVVYFAMHRLIIKPYLRAQKEKELEKQRESAATDVLQKKQEAESAVRLMQESVRRIIEAEESRMGLIIVNAWYGKFVNDKSRKSEKVKVIDVTVPLQCLVKDSKLILTEASKAGLPGFYDPCVGEEKNLKVLYQFRGVLHQVMVLDSEALRIPKQSHRIDTDG
Turning to B1, the binding entry in the assay with MPV17-BirA* (human) was “binds”.

B2: MPV17 (endogenous) (protein, UniProt P39210 1-176)
chain: MALWRAYQRALAAHPWKVQVLTAGSLMGLGDIISQQLVERRGLQEHQRGRTLTMVSLGCGFVGPVVGGWYKVLDRFIPGTTKVDALKKMLLDQGGFAPCFLGCFLPLVGALNGLSAQDNWAKLQRDYPDALITNYYLWPAVQLANFYLVPLHYRLAVVQCVAVIWNSYLSWKAHRL
For the molecule B2, in assay [1], the binding result is reported as “binds”.
